Data reported in patent publication US20080287481A1, “PROCESS FOR THE PREPARATION OF DES[…] MIXTURES” (priority 2006, published 2008).
Where two headings read alike, the source gives them in different places.

Settings: followed by IR absorption spectra
Excerpt: The term “stable” is used to describe an intimate mixture of desloratadine Form I and Form II that maintains the initial weight ratio of forms during formulation into a pharmaceutical dosage form and thereafter during a commercially useful period of normal storage and use, such as about one year, about 18 months, about two years, or any other desired period. […] Stability testing procedures are well known in the pharmaceutical industry.

Measured: Form I to Form II Ratio

Clc1ccc2c(c1)CCc1cccnc1C2=C1CCNCC1 [8-chloro-6,11-dihydro-11-(4-piperidylidene)-5H-benzo[5,6]cyclohepta[1,2-b]pyridine]
No change in IR absorption spectra: Long term storage for 24 months | Storage at 25 ± 5° C. and 60 ± 5% RH | Storage at 40 ± 5° C. and 70 ± 5% RH
